According to patent publication US20260256936A1 (priority 2023, published 2026):

Assay: general procedure: peptide synthesis; HATU/DIEA; HOBt/DIEA
Details: late stage modification step

“(2S,3S,4S,5R,6R)-6-((S)-2-((S)-2-acetamido-3-methylbutanamido)-3-((3-((2-((((R)-4-amino-3-(2,5-dioxo-2,5-dihydro-1H-pyrrol-1-yl)butoxy)carbonyl)amino)ethyl)carbamoyl)-4-((5S,8S,11S,12R)-11-((S)-sec-butyl)-12-(2-((S)-2-((1R,2R)-3-(((1S,2R)-1-hydroxy-1-phenylpropan-2-yl)amino)-1-methoxy-2-methyl-3-oxopropyl)pyrrolidin-1-yl)-2-oxoethyl)-5,8-diisopropyl-4,10-dimethyl-3,6,9-trioxo-2,13-dioxa-4,7,10-triazatetradecyl)phenyl)amino)-3-oxopropoxy)-3,4,5-trihydroxytetrahydro-2H-pyran-2-carboxylic acid—formic acid (1/1)” showed a step yield of 65.8%.
